# Measured data: PubChem BioAssay AID504744 (Drosophila RNAi Screening Center, 2011)
# Purpose: 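Find genes whose loss alters insulin-driven dAkt phosphorylation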 (primary screen)
# System: Drosophila Kc167 cells
# Reagents: long dsRNA against Drosophila genes, 250 ng dsRNA per well of a 384-well plate
# Duration: 3 days of knock-down, then overnight serum-free starvation before stimulation
# Challenge: bovine insulin at 387 nM for 10 minutes after 12 h without serum
# Measurement: 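In-cell antibody fluorescence for phospho-dAkt in each well over DNA-dye signal, with log2 residuals expressed as z-scores adjusted for cell count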
# Active means: 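Hit in the insulin screen when the two-replicate mean z-score is more extreme than plus or minus 2.5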
# The screen tested about 23,000 reagents; below is a random part of those that have a named target and a result. Over the whole deposit, 98 (0.43%) are marked active. 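Only hit calls are given; the phospho-dAkt signals, z-scores and hit direction were not deposited.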 Names joined by + are all predicted targets of the reagent.
Target gene,PubChem SID,call
tbc,SID104200332,inactive
CG8230,SID104185723,inactive
CG16781,SID104197909,inactive
Nepl20,SID104194670,inactive
Ptp61F,SID104188475,inactive
Tie,SID104187896,inactive
Tie,SID104188494,inactive
GAPsec,SID104190356,inactive
Hmt4-20,SID104198274,inactive
CG6650,SID104190477,inactive
osa,SID104196814,inactive
p38a,SID104196535,inactive
pav,SID104188522,inactive
prage,SID104197749,inactive
prage,SID104197750,inactive
prage,SID104198282,inactive
prage,SID104198289,inactive
CG11356,SID104199193,inactive
betaNACtes2,SID104199584,inactive
CG17930,SID104195084,inactive
Srrm234,SID104187747,inactive
Srrm234,SID104188398,inactive
trc,SID104191198,inactive
CG6652,SID104190478,inactive
CG7728,SID104190699,inactive
CG43897,SID104190757,inactive
CG43897,SID104190759,inactive
CG43897,SID104201291,inactive
Tsp42Ec,SID104185984,inactive
Pdxk,SID104190211,inactive
Plekhm1,SID104184319,inactive
CG10866,SID104187963,inactive
shf,SID104198075,inactive
Spase22-23,SID104195649,inactive
CG15528,SID104194857,inactive
CG15395,SID104180201,inactive
Cog3,SID104180377,inactive
CG42633,SID104195853,inactive
lambdaTry,SID104185929,inactive
br,SID104197483,inactive
br,SID104197581,inactive
br,SID104198535,inactive
br,SID104198536,inactive
CG42824 + CG42823,SID104193022,inactive
CG33229,SID104187655,inactive
Paris,SID104180243,inactive
EloB,SID104196455,inactive
Gr64c,SID104188237,inactive
Hey,SID104187232,inactive
Spn43Ad,SID104186562,inactive
CG1463,SID104199395,inactive
Acsf3,SID104197938,inactive
SPH93,SID104182770,inactive
CSN1b,SID104190900,inactive
CG11674,SID104199206,inactive
RpL10Aa,SID104195310,inactive
CG13171,SID104186091,inactive
Kcmf1,SID104194251,inactive
SMC1,SID104196638,inactive
B-H2,SID104199127,inactive
CG15643,SID104199471,inactive
COX5BL,SID104181915,inactive
CG10912,SID104185801,inactive
Ate1,SID104185717,inactive
Hasp,SID104181814,inactive

Continued, starting with the last 22 of the part before.
Target gene,PubChem SID,call
CG42824 + CG42823,SID104193022,inactive
CG33229,SID104187655,inactive
Paris,SID104180243,inactive
EloB,SID104196455,inactive
Gr64c,SID104188237,inactive
Hey,SID104187232,inactive
Spn43Ad,SID104186562,inactive
CG1463,SID104199395,inactive
Acsf3,SID104197938,inactive
SPH93,SID104182770,inactive
CSN1b,SID104190900,inactive
CG11674,SID104199206,inactive
RpL10Aa,SID104195310,inactive
CG13171,SID104186091,inactive
Kcmf1,SID104194251,inactive
SMC1,SID104196638,inactive
B-H2,SID104199127,inactive
CG15643,SID104199471,inactive
COX5BL,SID104181915,inactive
CG10912,SID104185801,inactive
Ate1,SID104185717,inactive
Hasp,SID104181814,inactive
CG12384,SID104185937,inactive
dib,SID104188503,inactive
CG17549,SID104182417,inactive
CG9815,SID104184359,inactive
CG5214,SID104195531,inactive
CG5214,SID104202201,inactive
Srp19,SID104191080,inactive
Fdx2,SID104188098,inactive
MSBP,SID104199938,inactive
nes,SID104191167,inactive
pll,SID104196818,inactive
CG5934,SID104195714,inactive
CR15821,SID104188273,inactive
CG4704,SID104195420,inactive
CG31516,SID104191786,inactive
CG14391,SID104194642,inactive
CG11095,SID104199167,inactive
Hsl,SID104185820,inactive
ytr,SID104184098,inactive
ytr,SID104201647,inactive
AhcyL1,SID104188439,inactive
CG42656,SID104192264,inactive
CG31897,SID104180812,inactive
lov,SID104184071,inactive
lov,SID104184457,inactive
alphaCOP,SID104188498,inactive
Os-C,SID104196570,inactive
NijB,SID104189642,inactive
CG5509,SID104195614,inactive
CG7506,SID104190652,inactive
CG6790,SID104195909,inactive
CG13226,SID104186138,inactive
CG4891,SID104181728,inactive
mnb,SID104199850,inactive
mnb,SID104200145,inactive
Tmtc2,SID104180064,inactive
Dhc16F,SID104200034,inactive
CG14668,SID104192046,inactive
pHCl-2,SID104194098,inactive
CG5800,SID104199754,inactive
Acsf2,SID104181964,inactive
Nrk,SID104187272,inactive
CG6985,SID104195956,inactive
CG1275,SID104188086,inactive
CG7544,SID104186815,inactive
Diap2,SID104187236,inactive
Ir7e,SID104197803,inactive
CG42537,SID104192311,inactive
CG15025,SID104194823,inactive
CrebB,SID104200024,inactive
Vdup1,SID104188378,inactive
Plc21C,SID104180565,inactive
CG8204,SID104186898,inactive
Gr98b,SID104201358,inactive
Ir62a,SID104188042,inactive
CG9265,SID104182970,inactive
CG9265,SID104182971,inactive
CG32639,SID104198764,inactive
CkIIbeta,SID104200022,inactive
CG10702,SID104181889,inactive
mey,SID104194260,inactive
CG32061,SID104202020,inactive
CG14151,SID104189945,inactive
Antp,SID104192282,inactive
Vang,SID104187362,inactive
CCT3,SID104196394,inactive
dap,SID104187393,inactive
CG12541,SID104197275,inactive
CG12541,SID104197631,inactive
CG30357,SID104201930,inactive
pn,SID104198614,inactive
CG2127,SID104186613,inactive
CG11912,SID104180124,inactive
sd,SID104200162,inactive
sd,SID104201387,inactive
CG32829,SID104180753,active
CG32829,SID104202164,inactive
Atg14,SID104194213,inactive
CG1958,SID104197988,inactive
CG31869,SID104182374,inactive
CG31869,SID104182466,inactive
obst-E,SID104181920,inactive
CG1271,SID104188082,inactive
nwk,SID104190234,inactive
Lipt1,SID104185392,inactive
Lipt1,SID104186975,inactive
Elp3,SID104180240,inactive
RpL17,SID104198085,inactive
CG16970 (retired record),SID104181102,inactive
CG16970 (retired record),SID104182341,inactive
CR9337,SID104183004,inactive
CG33170,SID104191646,inactive
CG33170,SID104201852,inactive
